Data from patent publication US20050106100A1, “Compounds containing matrix metalloproteinase substrates and methods of their use” (priority 2003, published 2005).
Some of these results come from one statement about several compounds together.

Test system: THP-1 cells
Test: Lipid bilayer insertion / cell binding of test substrates
Assay type: cell-based, human
Settings: live cell suspensions
Procedure: This assay was designed to study localization of test substrates in lipid bilayers of cells. THP-1 cell line a human monocytic cell line was used in this assay. THP-1 cells were washed with phosphate buffered saline (PBS) and 2×10^6 cells were used for each reaction in a 150 μL reaction volume. Test substrates were added to these cell suspensions to give a final concentration of 0.15 mM in the reaction. The reactions were incubated at 37° C. for 1 hour. The test compound in the supernatant was analyzed by HPLC and quantified. The level of compound in the supernatant in the presence and absence of cells was determined and the following ratio was generated: R=Level of compound in absence of cells/level of compound in the presence of cells
The ratio increases with increased binding to cells. A ratio of 1 denotes no binding to cells.

SMILES	association with cells (in words)
CC(=O)NNC(=O)CCCCCNC(=O)c1ccc(N/N=C/c2ccccc2S(=O)(=O)O)nc1 [Example 19, 2-((1E)-2-{[5-(N-{5-[N-(Acetylamino)carbamoyl]pentyl}carbamoyl)(2-pyridyl)]amino}-2-azavinyl)benzenesulfonic Acid]	cell association is observed
CCCCCCCCCCCC(=O)NNC(=O)CCCCCNC(=O)c1ccc(N/N=C/c2ccccc2S(=O)(=O)O)nc1 [Example 21, 2-((1E)-2-Aza-2-{[5-(N-{5-[N-(dodecanoylamino)carbamoyl]pentyl}-carbamoyl)(2-pyridyl)]amino}vinyl)benzenesulfonic Acid]	cell association is observed
CCCCCCCC(O)CCCC(=O)NNC(=O)c1ccc(N/N=C/c2ccccc2S(=O)(=O)O)nc1 (centres unmarked) [Example 22, 2-[(1E)-2-Aza-2-({5-[N-(5-hydroxydodecanoylamino)carbamoyl](2-pyridyl)}amino)vinyl]benzenesulfonic Acid]	cell association is observed
CCCCC(O)CCCCCCC(=O)NCCNC(=O)c1ccc(N/N=C/c2ccccc2S(=O)(=O)O)nc1 (centres unmarked) [Example 23, 2-{(1E)-2-Aza-2-[(5-{N-[2-(8-hydroxydodecanoylamino)ethyl]carbamoyl}(2-pyridyl))amino]vinyl}benzenesulfonic Acid]	cell association is observed
O=C(CCCCCCCCCCCO)NNC(=O)CCCCCNC(=O)c1ccc(N/N=C/c2ccccc2S(=O)(=O)O)nc1 [Example 20, 2-((1E)-2-Aza-2-{[5-(N-{5-[N-(12-hydroxydodecanoylamino)carbamoyl]pentyl}carbamoyl)(2-pyridyl)]amino}vinyl)benzenesulfonic Acid]	cell association is observed
